Laboratory results reported in PMC13379044.
Results are given in words; binding and its absence hold for the method and conditions named. Binding seen in cells or lysates may run through a third protein. Some results given as binding are weak or reduced against the parent protein; the word gives no strength.

Chains of the proteins cited; added tags and fusions are not shown.
UniProt Q13547: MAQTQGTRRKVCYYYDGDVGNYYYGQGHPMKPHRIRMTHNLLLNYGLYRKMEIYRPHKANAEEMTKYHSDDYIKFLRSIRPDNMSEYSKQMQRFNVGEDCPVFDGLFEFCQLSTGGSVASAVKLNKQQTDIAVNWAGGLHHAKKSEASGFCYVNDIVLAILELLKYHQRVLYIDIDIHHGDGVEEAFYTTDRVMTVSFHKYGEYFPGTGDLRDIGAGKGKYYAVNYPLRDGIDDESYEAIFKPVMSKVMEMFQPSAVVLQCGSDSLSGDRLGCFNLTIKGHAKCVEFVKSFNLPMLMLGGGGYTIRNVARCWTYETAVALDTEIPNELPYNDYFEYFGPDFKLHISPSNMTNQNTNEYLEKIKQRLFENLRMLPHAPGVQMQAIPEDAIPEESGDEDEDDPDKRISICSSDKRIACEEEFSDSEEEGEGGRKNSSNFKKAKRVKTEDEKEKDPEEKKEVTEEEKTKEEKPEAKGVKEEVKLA

Target: Histone deacetylase 1 (human (endogenous in B lymphocytes of patients)) (UniProt Q13547)
Experiment: co-IP; B lymphocyte lysate; anti-HDAC1 antibody as the bait (normal rabbit IgG as control), overnight at 4°C, agarose beads; western blot with anti-HDAC1 and anti-IRF1

binding: binds
B1: Interferon regulatory factor 1 (protein, UniProt P10914 1-325)
chain: MPITRMRMRPWLEMQINSNQIPGLIWINKEEMIFQIPWKHAAKHGWDINKDACLFRSWAIHTGRYKAGEKEPDPKTWKANFRCAMNSLPDIEEVKDQSRNKGSSAVRVYRMLPPLTKNQRKERKSKSSRDAKSKAKRKSCGDSSPDTFSDGLSSSTLPDDHSSYTVPGYMQDLEVEQALTPALSPCAVSSTLPDWHIPVEVVPDSTSDLYNFQVSPMPSTSEATTDEDEEGKLPEDIMKLLEQSEWQPTNVDGKGYLLNEPGVQPTSVYGDFSCKEEPEIDSPGGDIGLSLQRVFTDLKNMDATWLDSLLTPVRLPSIQAIPCAP
